Drawing on the supplement of paper PMC8426693, this text covers T2 signal reduction and NMR binding call for 12 molecules.

The other results are listed elsewhere or left out. For part of these data: Most values come without repeats; read them as rough.

Common to all, as to conditions: RNA concentration 10 µM; fragment concentration 200 µM; 293 K
Assay [1] deals with SARS-CoV-2 3_SL3base RNA. The assay can be described thus: T2 signal reduction relative to ligand without RNA (fraction); higher = stronger binding.
The test system of a further assay is SARS-CoV-2 5'-UTR RNA. Described as above.
The next assay concerns SARS-CoV-2 5_SL5 RNA. The description is as above.
A further assay concerns SARS-CoV-2 5_SL5stem RNA. The assay is described as above.
The subject of another assay is SARS-CoV-2 3'-UTR RNA. In words: NMR binding call after quantification (hit when 2 of 3 NMR criteria are met) (binary (1 = binding, 0 = not binding)); higher = binding.
Another assay has as its system SARS-CoV-2 3_SL1 RNA. Described as above.
In the next assay the test system is SARS-CoV-2 3_SL1+2 RNA. The description is as above.
In the next assay the test system is SARS-CoV-2 3_SL2 RNA. Described as above.
In assay [2] the test system is SARS-CoV-2 3_SL3base RNA. Described as above.
Assay [3] has as its system SARS-CoV-2 3_s2m RNA. The description is as above.
The subject of another assay is SARS-CoV-2 5_SL8 RNA. The assay can be described thus: T2 signal reduction relative to ligand without RNA (fraction); higher = stronger binding.
A further assay concerns SARS-CoV-2 5_SL7 RNA. The assay is described as above.
The next assay has as its system SARS-CoV-2 5_SL1 RNA. The description is as above.
In assay [4] the test system is SARS-CoV-2 frameshift pseudoknot (PK) RNA. The description is as above.
Assay [5] concerns SARS-CoV-2 3_s2m RNA. The assay is described as above.
The next assay relates to SARS-CoV-2 5_SL1234 RNA. The description is as above.
The next assay deals with SARS-CoV-2 5_SL4 RNA. Described as above.

On to `O=C(Nc1ccon1)c1cccc(Cl)c1`, for which the T2 signal reduction in the assay with SARS-CoV-2 3_SL3base RNA [1] came to 0.32; with SARS-CoV-2 5'-UTR RNA, 0.73; in the assay on SARS-CoV-2 5_SL5 RNA, 0.55; with SARS-CoV-2 5_SL5stem RNA it was 0.56. Further, the NMR binding call in the assay on SARS-CoV-2 3'-UTR RNA is 1; in the assay with SARS-CoV-2 3_SL1 RNA, 0; with SARS-CoV-2 3_SL1+2 RNA, 0; in the assay with SARS-CoV-2 3_SL2 RNA, 0; in the assay with SARS-CoV-2 3_SL3base RNA [2], 1; with SARS-CoV-2 3_s2m RNA [3] it was 0.

As for `c1cc(-c2ccc3c(c2)OCO3)n[nH]1`, the T2 signal reduction in the assay with SARS-CoV-2 3_SL3base RNA [1] was determined as 0.41; with SARS-CoV-2 5'-UTR RNA, 0.84; in the assay on SARS-CoV-2 5_SL5 RNA, 0.94; in the assay on SARS-CoV-2 5_SL8 RNA it was 0.37. Besides, the NMR binding call in the assay with SARS-CoV-2 3'-UTR RNA is 1; in the assay with SARS-CoV-2 3_SL1 RNA, 0; in the assay with SARS-CoV-2 3_SL1+2 RNA, 0; in the assay with SARS-CoV-2 3_SL2 RNA, 0; with SARS-CoV-2 3_SL3base RNA [2] it was 1; in the assay with SARS-CoV-2 3_s2m RNA [3], 0.

As for `CNCC(=O)Nc1cc(C)ccn1`, the T2 signal reduction with SARS-CoV-2 3_SL3base RNA [1] was 0.59; in the assay on SARS-CoV-2 5'-UTR RNA, 1.08. The NMR binding call with SARS-CoV-2 3'-UTR RNA is 1; with SARS-CoV-2 3_SL1 RNA, 0; in the assay on SARS-CoV-2 3_SL1+2 RNA, 0; in the assay with SARS-CoV-2 3_SL2 RNA, 0; in the assay on SARS-CoV-2 3_SL3base RNA [2], 1; with SARS-CoV-2 3_s2m RNA [3], 0.

Consider `Cc1sc2ncnc(N(C)C)c2c1C`, for which the figures for the T2 signal reduction in the assay with SARS-CoV-2 3_SL3base RNA [1], in the assay on SARS-CoV-2 5'-UTR RNA and in the assay on SARS-CoV-2 5_SL5 RNA were 0.43, 0.81 and 0.9, respectively. The NMR binding call in the assay on SARS-CoV-2 3'-UTR RNA is 1; in the assay on SARS-CoV-2 3_SL1 RNA, 0; with SARS-CoV-2 3_SL1+2 RNA, 0; in the assay on SARS-CoV-2 3_SL2 RNA, 0; with SARS-CoV-2 3_SL3base RNA [2], 1; in the assay on SARS-CoV-2 3_s2m RNA [3], 0.

On to `COc1ccc2[nH]cc(CN(C)C)c2c1`, for which the T2 signal reduction in the assay on SARS-CoV-2 5'-UTR RNA was 0.4; in the assay with SARS-CoV-2 5_SL7 RNA, 0.44. For the same molecule, the NMR binding call with SARS-CoV-2 3'-UTR RNA, in the assay on SARS-CoV-2 3_SL1 RNA and with SARS-CoV-2 3_SL1+2 RNA was 0 throughout.

Take `c1coc(CNc2nc3ccccc3[nH]2)c1`: the T2 signal reduction with SARS-CoV-2 3_SL3base RNA [1] worked out at 0.29; in the assay with SARS-CoV-2 5'-UTR RNA it was 0.25. For the same molecule, the NMR binding call worked out at 0 in the assay on SARS-CoV-2 3_SL1 RNA; 1 in the assay on SARS-CoV-2 3_SL1+2 RNA; 0 in the assay with SARS-CoV-2 3_SL2 RNA; 1 in the assay with SARS-CoV-2 3_SL3base RNA [2]; 0 in the assay on SARS-CoV-2 3_s2m RNA [3].

In the assay on SARS-CoV-2 5'-UTR RNA, `OCc1ccc(-n2cnc3ccccc32)cc1` returned a T2 signal reduction of 0.23. In addition, the NMR binding call with SARS-CoV-2 3'-UTR RNA turned out to be 1; in the assay on SARS-CoV-2 3_SL1 RNA, 0; in the assay on SARS-CoV-2 3_SL1+2 RNA, 0; in the assay on SARS-CoV-2 3_SL2 RNA, 0; with SARS-CoV-2 3_SL3base RNA [2], 0; in the assay with SARS-CoV-2 3_s2m RNA [3], 0.

For the molecule `N#Cc1ccc(NC(=O)c2cccs2)cc1`, the T2 signal reduction with SARS-CoV-2 3_SL3base RNA [1] stood at 0.63; with SARS-CoV-2 5'-UTR RNA, 0.82; with SARS-CoV-2 5_SL5 RNA it was 0.75. Besides, the NMR binding call in the assay with SARS-CoV-2 3'-UTR RNA was found to be 1; with SARS-CoV-2 3_SL1 RNA, 0; in the assay on SARS-CoV-2 3_SL1+2 RNA, 0; in the assay on SARS-CoV-2 3_SL2 RNA, 0; with SARS-CoV-2 3_SL3base RNA [2], 1; in the assay with SARS-CoV-2 3_s2m RNA [3], 0.

As for `Cc1occc1C(=O)Nc1ccncc1`, the T2 signal reduction in the assay on SARS-CoV-2 3_SL3base RNA [1] turned out to be 0.63; in the assay with SARS-CoV-2 5'-UTR RNA it was 0.86; in the assay on SARS-CoV-2 5_SL1 RNA, 0.24; in the assay with SARS-CoV-2 5_SL5 RNA, 0.8; in the assay on SARS-CoV-2 5_SL5stem RNA, 0.86; with SARS-CoV-2 5_SL8 RNA it was 0.32. For the same molecule, the T2 signal reduction in assay [4] turned out to be 0.31. Also, the NMR binding call in the assay on SARS-CoV-2 3'-UTR RNA amounted to 1; in the assay on SARS-CoV-2 3_SL1 RNA it was 0; with SARS-CoV-2 3_SL1+2 RNA, 1; with SARS-CoV-2 3_SL2 RNA it was 0; with SARS-CoV-2 3_SL3base RNA [2], 1; in the assay on SARS-CoV-2 3_s2m RNA [3], 0.

Regarding `Cl.NCc1cc(-c2ccccc2)no1`, the values for the T2 signal reduction in the assay with SARS-CoV-2 3_s2m RNA [5], with SARS-CoV-2 5'-UTR RNA and with SARS-CoV-2 5_SL7 RNA were 0.26, 0.84 and 0.41, respectively. The NMR binding call came out at 1 in the assay with SARS-CoV-2 3'-UTR RNA, 0 with SARS-CoV-2 3_SL1 RNA and 1 with SARS-CoV-2 3_s2m RNA [3].

With `CNC(=O)Nc1nc2ccc(OC)cc2s1`, the T2 signal reduction in the assay on SARS-CoV-2 3_s2m RNA [5] came out at 0.5; in the assay on SARS-CoV-2 5_SL1 RNA, 0.84; in the assay on SARS-CoV-2 5_SL1234 RNA, 0.63; with SARS-CoV-2 5_SL4 RNA, 0.49; with SARS-CoV-2 5_SL7 RNA, 0.49; in [4] it was 0.59. Moreover, the NMR binding call with SARS-CoV-2 3'-UTR RNA is 0; with SARS-CoV-2 3_SL1 RNA it was 0; in the assay on SARS-CoV-2 3_SL1+2 RNA, 0; in the assay on SARS-CoV-2 3_SL2 RNA, 0; in the assay on SARS-CoV-2 3_SL3base RNA [2], 0; in the assay with SARS-CoV-2 3_s2m RNA [3], 1.

Turning to `Cc1cccc(NC(=O)Nc2nc(C)cs2)c1`, the T2 signal reduction was 0.76 in the assay on SARS-CoV-2 3_SL3base RNA [1]; 0.76 in the assay on SARS-CoV-2 3_s2m RNA [5]; 0.91 with SARS-CoV-2 5_SL1234 RNA; 0.87 with SARS-CoV-2 5_SL4 RNA; 0.88 in the assay with SARS-CoV-2 5_SL5 RNA; 0.8 with SARS-CoV-2 5_SL5stem RNA. For the same molecule, the NMR binding call stood at 1 in the assay on SARS-CoV-2 3'-UTR RNA; 0 with SARS-CoV-2 3_SL1 RNA; 0 with SARS-CoV-2 3_SL1+2 RNA; 0 with SARS-CoV-2 3_SL2 RNA; 1 in the assay with SARS-CoV-2 3_SL3base RNA [2]; 1 in the assay with SARS-CoV-2 3_s2m RNA [3].
